This assay concerns the target T1, human 14-3-3ε (human), P62258.
T1 chain: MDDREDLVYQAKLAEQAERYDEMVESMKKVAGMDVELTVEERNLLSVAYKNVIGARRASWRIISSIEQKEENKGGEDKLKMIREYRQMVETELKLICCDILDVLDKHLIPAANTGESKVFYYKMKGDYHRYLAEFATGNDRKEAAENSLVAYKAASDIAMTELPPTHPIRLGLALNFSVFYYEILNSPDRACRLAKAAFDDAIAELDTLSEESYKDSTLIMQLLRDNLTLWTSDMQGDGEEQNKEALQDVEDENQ
The assay can be described thus: native gel or EMSA; purified 14-3-3 isoforms (14 μM per monomer) without or with PKA (2 μM) in 50 mM Hepes-NaOH pH 7.3, 10 mM NaCl, 4 mM MgCl2, 60 μM ATP, 2 h at 30°C; non-denaturing 15% gel, pH 8.6; dimer and monomer regions of the gel; both purified. The note with it: remark: other sources report otherwise.

Results are given in words; binding and its absence hold for the method and conditions named. Some results given as binding are weak or reduced against the parent protein; the word gives no strength.

The text below walks through data of publication PMC5456370, “Bacterial co-expression of human Tau protein with protein kinase A and 14-3-3 for studies of 14-3-3/phospho-Tau interaction” (PLoS ONE, 2017).

B1: human 14-3-3ε, P62258 1-255 (protein)
chain: MDDREDLVYQAKLAEQAERYDEMVESMKKVAGMDVELTVEERNLLSVAYKNVIGARRASWRIISSIEQKEENKGGEDKLKMIREYRQMVETELKLICCDILDVLDKHLIPAANTGESKVFYYKMKGDYHRYLAEFATGNDRKEAAENSLVAYKAASDIAMTELPPTHPIRLGLALNFSVFYYEILNSPDRACRLAKAAFDDAIAELDTLSEESYKDSTLIMQLLRDNLTLWTSDMQGDGEEQNKEALQDVEDENQ
Turning to B1, the binding entry is reported as “binds”.
